Laboratory results published in PubChem BioAssay AID264 (DTP/NCI, 2004).
The list does not hold the whole screen: it is rich in T/C values a quarter to a half above the control, in often repeated tests (any T/C) and in doses without a T/C. Other doses and runs of a compound stand elsewhere. T/C: endpoint of the treated group in % of that of the vehicle group. Schedule codes are those of the source, taken here to give the interval after Q, in days (D) or hours (H), and the number of doses after X. Some T/C values carry the count of animals alive at the toxicity check (mostly the fifth day); where none is given, no animal had died by that day. Some doses were run more than once; the values are given in rising order. Some doses have a count of surviving animals in place of a T/C: the source files T/C as zero there, which appears to mark a toxic dose or a test without result, not a measured value. Counts of survivors are from the toxicity check (mostly the fifth day) where no day follows; animals may have died later.

Test system: nude mice, LX-1 lung xenograft intrarenal, tumor weight T/C
Assay: NCI In Vivo Anticancer Drug Screen. Data for tumor model Human Lung LX-1 Xenograft (intrarenal inoculation) in NU/NU Swiss (nude) mice
Conditions: T/C endpoint: mean tumor weight change, higher T/C = larger tumour; for T/C: evaluated on day 11
Summary of the method: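 In vivo, transplantable tumor; compound vs vehicle arms; tumor size measured; value = T/C.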

[1] = dose: 300.0 mg/kg/injection, schedule: Q04DX003 (sc), vehicle: saline with Tween-80
[2] = dose: 600.0 mg/kg/injection, schedule: Q04DX003 (sc), vehicle: saline with Tween-80
[3] = dose: 0.4 mg/kg/injection, schedule: Q01DX010 (sc), vehicle: saline
[4] = dose: 0.8 mg/kg/injection, schedule: Q01DX010 (sc), vehicle: saline
[5] = dose: 50.0 mg/kg/injection, schedule: Q01DX010 (sc), vehicle: saline
[6] = dose: 100.0 mg/kg/injection, schedule: Q01DX010 (sc), vehicle: saline
[7] = dose: 100.0 mg/kg/injection, schedule: Q01DX010 (sc), vehicle: Klucel (hydroxypropylcellulose) (HPC)
[8] = dose: 200.0 mg/kg/injection, schedule: Q01DX010 (sc), vehicle: Klucel (hydroxypropylcellulose) (HPC)

## CN1c2c(nc(N)[nH]c2=O)NCC1CCNc1ccc(C(=O)NC(CCC(=O)O)C(=O)O)cc1 (centres undefined)
dose: 800.0 mg/kg/injection, schedule: Q01DX010 (sc), vehicle: saline
  survivor count: 0 of 3 on day 11

## O=c1[nH]c(=O)n(C2CC(O)C(CO)O2)cc1I (centres undefined)
dose: 400.0 mg/kg/injection, schedule: Q01DX010 (sc), vehicle: saline with Tween-80
  survivor count: 3 of 6 on day 11
dose: 800.0 mg/kg/injection, schedule: Q01DX010 (sc), vehicle: saline with Tween-80
  survivor count: 0 of 6 on day 11

## c1ccc2c(c1)-c1ccccc1C1NC21 (centres undefined)
[1]
  survivor count: 0 of 6 on day 11

## Nc1nc2c(C(=O)N3CCCC3)nnn2c2ccccc12
dose: 37.5 mg/kg/injection, schedule: Q04DX003 (sc), vehicle: saline with Tween-80
  T/C: 132 % of control
dose: 75.0 mg/kg/injection, schedule: Q04DX003 (sc), vehicle: saline with Tween-80
  T/C: 135 % of control
[1]
  survivor count: 0 of 6 on day 11

## O=c1[nH]cnc2c1ccn2C1OC(CO)C(O)C1O (centres undefined)
dose: 6.25 mg/kg/injection, schedule: Q04DX003 (sc), vehicle: saline
  T/C: 131 % of control
dose: 25.0 mg/kg/injection, schedule: Q04DX003 (sc), vehicle: saline
  T/C: 130 % of control [5 of 6 alive on day 11]

## C[Si](C)(CCl)N[Si](C)(C)CCl
[1]
  T/C: 141 % of control
[2]
  T/C: 135 % of control
dose: 2400.0 mg/kg/injection, schedule: Q04DX003 (sc), vehicle: saline with Tween-80
  survivor count: 0 of 6 on day 11

## COc1ccc(C[C@H](N)C(=O)NC2C(CO)OC(n3cnc4c(N(C)C)ncnc43)C2O)cc1 (some centres undefined)
dose: 400.0 mg/kg/injection, schedule: Q04DX003 (sc), vehicle: saline
  T/C: 128 % of control
dose: 800.0 mg/kg/injection, schedule: Q04DX003 (sc), vehicle: saline
  survivor count: 0 of 6 on day 11

## [N-]=[N+]=CC(=O)CCC(N)C(=O)O (centres undefined)
dose: 0.2 mg/kg/injection, schedule: Q01DX010 (sc), vehicle: saline
  survivor count: 1 of 3 on day 11
[3]
  T/C: 83 [2 of 3 alive on day 11] and 92 % of control
  survivor count: 1 of 3 on day 11 and 3 of 6 on day 11
dose: 0.75 mg/kg/injection, schedule: Q01DX010 (sc), vehicle: saline
  survivor count: 1 of 3 on day 11
[4]
  T/C: 40 % of control [2 of 3 alive on day 11]
  survivor count: 0 of 3 on day 11, 1 of 3 on day 11, 3 of 6 on day 11
dose: 1.5 mg/kg/injection, schedule: Q01DX010 (sc), vehicle: saline
  survivor count: 0 of 3 on day 11
dose: 1.6 mg/kg/injection, schedule: Q01DX010 (sc), vehicle: saline
  survivor count: 0 of 3 on day 11 and 0 of 6 on day 11
dose: 3.0 mg/kg/injection, schedule: Q01DX010 (sc), vehicle: saline
  survivor count: 0 of 3 on day 11
dose: 3.2 mg/kg/injection, schedule: Q01DX010 (sc), vehicle: saline
  survivor count: 0 of 3 on day 11 and 0 of 6 on day 11
dose: 6.0 mg/kg/injection, schedule: Q01DX010 (sc), vehicle: saline
  survivor count: 0 of 3 on day 11
dose: 6.25 mg/kg/injection, schedule: Q01DX010 (sc), vehicle: saline
  survivor count: 0 of 3 on day 11
dose: 6.4 mg/kg/injection, schedule: Q01DX010 (sc), vehicle: saline
  survivor count: 0 of 3 on day 11
dose: 12.5 mg/kg/injection, schedule: Q01DX010 (sc), vehicle: saline
  survivor count: 0 of 3 on day 11
dose: 25.0 mg/kg/injection, schedule: Q01DX010 (sc), vehicle: saline
  survivor count: 0 of 3 on day 11
[5]
  survivor count: 0 of 2 on day 11 and 0 of 3 on day 11
[6]
  survivor count: 0 of 3 on day 11

## O=C(CCCN1CCC(O)(c2cccc(C(F)(F)F)c2)CC1)c1ccc(F)cc1
dose: 25.0 mg/kg/injection, schedule: Q01DX010 (sc), vehicle: Klucel (hydroxypropylcellulose) (HPC)
  T/C: 126 % of control [2 of 3 alive on day 11]
[7]
  survivor count: 1 of 3 on day 11
[8]
  survivor count: 0 of 3 on day 11

## CSc1ncnc2c1ncn2C1OC(CO)C(O)C1O (centres undefined)
dose: 37.5 mg/kg/injection, schedule: Q04DX003 (sc), vehicle: saline + alcohol
  T/C: 138 % of control
dose: 300.0 mg/kg/injection, schedule: Q04DX003 (sc), vehicle: saline + alcohol
  survivor count: 0 of 6 on day 11

## Cc1ccc2c(c1)C(=O)N(CC[P+](c1ccccc1)(c1ccccc1)c1ccccc1)C2=O
[7]
  survivor count: 0 of 3 on day 11

## COc1ccc(-c2csc(=[N+]3CCCCC3)s2)cc1
dose: 25.0 mg/kg/injection, schedule: Q04DX003 (sc), vehicle: water
  survivor count: 1 of 6 on day 11
dose: 50.0 mg/kg/injection, schedule: Q04DX003 (sc), vehicle: water
  survivor count: 0 of 6 on day 11
dose: 100.0 mg/kg/injection, schedule: Q04DX003 (sc), vehicle: water
  survivor count: 0 of 6 on day 11
dose: 200.0 mg/kg/injection, schedule: Q04DX003 (sc), vehicle: water
  survivor count: 0 of 6 on day 11

## Cc1cc(N(CCOS(C)(=O)=O)CCOS(C)(=O)=O)ccc1C=Nc1ccc(-c2nc(Cc3ccccc3)sc2C)cc1
[8]
  survivor count: 1 of 3 on day 11
dose: 400.0 mg/kg/injection, schedule: Q01DX010 (sc), vehicle: Klucel (hydroxypropylcellulose) (HPC)
  survivor count: 0 of 3 on day 11
dose: 800.0 mg/kg/injection, schedule: Q01DX010 (sc), vehicle: Klucel (hydroxypropylcellulose) (HPC)
  survivor count: 1 of 3 on day 11

## COc1cccc2c1C(=O)c1c(O)c3c(c(O)c1C2=O)C[C@@](O)(/C(C)=N/NC(=O)c1cccc([N+](=O)[O-])c1)C[C@@H]3OC1CC(N)C(O)C(C)O1 (some centres undefined)
dose: 32.0 mg/kg/injection, schedule: Q01DX010 (sc), vehicle: water
  survivor count: 0 of 3 on day 11

## O=C1NCC(Br)C(=O)N1 (centres undefined)
[2]
  survivor count: 1 of 6 on day 11
dose: 1200.0 mg/kg/injection, schedule: Q04DX003 (sc), vehicle: saline with Tween-80
  survivor count: 0 of 6 on day 11

## CNC(=O)ON(C(C)=O)C(=O)NC
[5]
  T/C: 130 % of control
[6]
  survivor count: 1 of 2 on day 11

## CCNC(=O)OCc1c(COC(=O)NCC)c(-c2ccc(Cl)c(Cl)c2)n2c1CCC2
dose: 12.5 mg/kg/injection, schedule: Q01DX010 (sc), vehicle: saline with Tween-80
  T/C: 149 % of control [2 of 3 alive on day 11]
dose: 100.0 mg/kg/injection, schedule: Q01DX010 (sc), vehicle: saline with Tween-80
  T/C: 128 % of control
dose: 200.0 mg/kg/injection, schedule: Q01DX010 (sc), vehicle: saline with Tween-80
  survivor count: 0 of 3 on day 11

## F[B-](F)(F)F
dose: 2400.0 mg/kg/injection, schedule: Q04DX003 (sc), vehicle: gum acacia
  survivor count: 1 of 6 on day 11

## CN(C)CCN1C(=O)c2cccc3cc([N+](=O)[O-])cc(c23)C1=O
dose: 4.5 mg/kg/injection, schedule: Q04DX003 (sc), vehicle: saline with Tween-80
  T/C: 130 % of control
